Test results taken from patent US12533341B2, “Small molecule inhibitors of voltage-gated sodium channel 1.7 and methods of using same” (Duke University, priority 2019, dated 2026).
Some entries share one result that the patent states for a list of compounds. For at least one compound, name, drawing or mass did not settle the structure.

Protein sequences, listed by entry. Tags and fused reporters are not part of them.
UniProt Q15858, whole entry: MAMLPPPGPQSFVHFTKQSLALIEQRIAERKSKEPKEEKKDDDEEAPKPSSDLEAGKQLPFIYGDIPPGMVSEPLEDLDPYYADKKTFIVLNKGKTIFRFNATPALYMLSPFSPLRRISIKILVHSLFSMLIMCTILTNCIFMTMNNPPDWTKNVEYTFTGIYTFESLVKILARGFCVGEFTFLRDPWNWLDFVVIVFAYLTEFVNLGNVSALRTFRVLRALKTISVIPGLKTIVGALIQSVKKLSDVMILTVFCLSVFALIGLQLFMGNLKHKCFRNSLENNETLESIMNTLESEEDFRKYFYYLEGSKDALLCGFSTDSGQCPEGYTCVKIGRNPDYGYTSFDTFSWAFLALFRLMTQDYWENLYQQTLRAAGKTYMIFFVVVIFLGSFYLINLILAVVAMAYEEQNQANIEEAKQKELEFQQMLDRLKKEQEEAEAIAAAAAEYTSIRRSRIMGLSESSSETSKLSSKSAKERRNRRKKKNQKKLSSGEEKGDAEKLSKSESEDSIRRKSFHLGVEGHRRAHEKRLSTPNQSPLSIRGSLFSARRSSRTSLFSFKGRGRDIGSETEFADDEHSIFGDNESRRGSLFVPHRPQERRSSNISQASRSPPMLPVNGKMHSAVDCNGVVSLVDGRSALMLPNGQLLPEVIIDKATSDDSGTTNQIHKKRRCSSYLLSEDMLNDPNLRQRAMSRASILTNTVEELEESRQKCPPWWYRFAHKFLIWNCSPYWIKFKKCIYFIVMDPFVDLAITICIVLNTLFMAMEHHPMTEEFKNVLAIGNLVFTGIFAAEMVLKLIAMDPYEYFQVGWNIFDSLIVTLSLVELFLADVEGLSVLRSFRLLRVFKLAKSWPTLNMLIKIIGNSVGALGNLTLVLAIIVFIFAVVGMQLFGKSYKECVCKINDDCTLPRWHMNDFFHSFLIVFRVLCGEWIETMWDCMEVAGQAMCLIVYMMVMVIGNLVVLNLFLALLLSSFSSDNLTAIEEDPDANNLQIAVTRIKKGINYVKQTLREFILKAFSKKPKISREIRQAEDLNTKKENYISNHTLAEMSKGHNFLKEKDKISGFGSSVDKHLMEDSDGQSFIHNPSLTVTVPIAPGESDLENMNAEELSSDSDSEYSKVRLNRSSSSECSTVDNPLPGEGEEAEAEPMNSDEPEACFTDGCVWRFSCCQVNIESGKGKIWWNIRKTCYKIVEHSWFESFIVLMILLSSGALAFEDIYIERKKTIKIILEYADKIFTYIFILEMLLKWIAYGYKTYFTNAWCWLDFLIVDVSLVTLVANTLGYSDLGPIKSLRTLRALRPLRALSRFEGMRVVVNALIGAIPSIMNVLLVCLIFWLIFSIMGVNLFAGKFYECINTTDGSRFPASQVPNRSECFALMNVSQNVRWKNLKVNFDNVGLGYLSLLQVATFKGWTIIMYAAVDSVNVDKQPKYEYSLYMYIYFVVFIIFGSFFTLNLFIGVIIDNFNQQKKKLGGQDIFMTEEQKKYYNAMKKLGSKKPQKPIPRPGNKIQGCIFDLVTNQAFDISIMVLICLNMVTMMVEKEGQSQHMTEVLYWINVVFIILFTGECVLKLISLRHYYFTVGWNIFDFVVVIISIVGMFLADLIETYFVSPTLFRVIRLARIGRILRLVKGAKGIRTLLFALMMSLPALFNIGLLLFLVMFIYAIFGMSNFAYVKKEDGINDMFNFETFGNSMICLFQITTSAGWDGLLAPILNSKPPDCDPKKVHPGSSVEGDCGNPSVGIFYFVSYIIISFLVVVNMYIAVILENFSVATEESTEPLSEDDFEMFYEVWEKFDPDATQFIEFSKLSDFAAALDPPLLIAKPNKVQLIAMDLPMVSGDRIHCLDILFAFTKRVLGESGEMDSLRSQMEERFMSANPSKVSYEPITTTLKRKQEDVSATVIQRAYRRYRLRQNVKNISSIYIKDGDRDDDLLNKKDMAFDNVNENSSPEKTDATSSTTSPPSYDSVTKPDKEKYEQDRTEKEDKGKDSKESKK

Target: human Nav1.7 (Homo sapiens, UniProt Q15858)
Assay: Whole-cell patch-clamp of sodium currents in Nav1.7-expressing HEK293 cells
Assay type: cell-based
Conditions: 10 μM, screen of compounds 1-9 (FIG. 3)
Experimental: HEK-hNav1.7 stable cell line was purchased from SB Drug Discovery (Glasgow, United Kingdom). Human embryonic kidney 293 (HEK293) cells were obtained from the ATCC and maintained at the Duke cell culture facility. Cells were cultured in high-glucose (4.5 g/L) DMEM containing 10% (v/v) FBS (Gibco) and streptomycin/penicillin. For Nav1.7-expressing HEK293 cells, an additional antibiotic, blasticidin, was included. hNav1.5 transfection was performed by Lipofectamine 2000 at 70% confluence using 2 μg cDNA. The transfected cells were cultured in the same growth medium for 48 h before biochemical or electrophysiological studies.
Whole-cell patch-clamp recordings were conducted at room temperature. […]
The effects of the 9 selected compounds on Nav1.7 channel activities were tested using patch-clamp recordings on human Nav1.7 expressing HEK293 cells (FIG. 3, FIG. 4). In each cell, sodium currents were recorded for 13 min, and candidate inhibitors (10 μM) were incubated for 2 min after 2 min baseline recording (FIG. 3). […] Sodium currents were recorded at equal intervals (every 20 seconds, 40 recordings per compound per cell). Data was analyzed with a two-way repeated measures ANOVA, followed by a post-hoc test of the last timepoint Bonferroni-corrected for 9 pairwise comparisons (each compound was compared with control). […]

## COc1ccc(Cn2cc(C(CC(=O)NCc3ccco3)c3ccc(C)cc3)c3ccccc32)cc1 (stereo not shown) [Compound 3]
  difference in relative current from the control group at the last measurement: not significantly different from control
